Data reported in publication doi:10.1101/2022.09.20.508711.
These are yes or no findings as the source states them, for the method shown. In cells and extracts the contact can be indirect. Some entries that bind do so weakly or less than the wild type.

Sequences of proteins named here, by UniProt entry; tags and fusion partners are left off.
UniProt Q8IY92: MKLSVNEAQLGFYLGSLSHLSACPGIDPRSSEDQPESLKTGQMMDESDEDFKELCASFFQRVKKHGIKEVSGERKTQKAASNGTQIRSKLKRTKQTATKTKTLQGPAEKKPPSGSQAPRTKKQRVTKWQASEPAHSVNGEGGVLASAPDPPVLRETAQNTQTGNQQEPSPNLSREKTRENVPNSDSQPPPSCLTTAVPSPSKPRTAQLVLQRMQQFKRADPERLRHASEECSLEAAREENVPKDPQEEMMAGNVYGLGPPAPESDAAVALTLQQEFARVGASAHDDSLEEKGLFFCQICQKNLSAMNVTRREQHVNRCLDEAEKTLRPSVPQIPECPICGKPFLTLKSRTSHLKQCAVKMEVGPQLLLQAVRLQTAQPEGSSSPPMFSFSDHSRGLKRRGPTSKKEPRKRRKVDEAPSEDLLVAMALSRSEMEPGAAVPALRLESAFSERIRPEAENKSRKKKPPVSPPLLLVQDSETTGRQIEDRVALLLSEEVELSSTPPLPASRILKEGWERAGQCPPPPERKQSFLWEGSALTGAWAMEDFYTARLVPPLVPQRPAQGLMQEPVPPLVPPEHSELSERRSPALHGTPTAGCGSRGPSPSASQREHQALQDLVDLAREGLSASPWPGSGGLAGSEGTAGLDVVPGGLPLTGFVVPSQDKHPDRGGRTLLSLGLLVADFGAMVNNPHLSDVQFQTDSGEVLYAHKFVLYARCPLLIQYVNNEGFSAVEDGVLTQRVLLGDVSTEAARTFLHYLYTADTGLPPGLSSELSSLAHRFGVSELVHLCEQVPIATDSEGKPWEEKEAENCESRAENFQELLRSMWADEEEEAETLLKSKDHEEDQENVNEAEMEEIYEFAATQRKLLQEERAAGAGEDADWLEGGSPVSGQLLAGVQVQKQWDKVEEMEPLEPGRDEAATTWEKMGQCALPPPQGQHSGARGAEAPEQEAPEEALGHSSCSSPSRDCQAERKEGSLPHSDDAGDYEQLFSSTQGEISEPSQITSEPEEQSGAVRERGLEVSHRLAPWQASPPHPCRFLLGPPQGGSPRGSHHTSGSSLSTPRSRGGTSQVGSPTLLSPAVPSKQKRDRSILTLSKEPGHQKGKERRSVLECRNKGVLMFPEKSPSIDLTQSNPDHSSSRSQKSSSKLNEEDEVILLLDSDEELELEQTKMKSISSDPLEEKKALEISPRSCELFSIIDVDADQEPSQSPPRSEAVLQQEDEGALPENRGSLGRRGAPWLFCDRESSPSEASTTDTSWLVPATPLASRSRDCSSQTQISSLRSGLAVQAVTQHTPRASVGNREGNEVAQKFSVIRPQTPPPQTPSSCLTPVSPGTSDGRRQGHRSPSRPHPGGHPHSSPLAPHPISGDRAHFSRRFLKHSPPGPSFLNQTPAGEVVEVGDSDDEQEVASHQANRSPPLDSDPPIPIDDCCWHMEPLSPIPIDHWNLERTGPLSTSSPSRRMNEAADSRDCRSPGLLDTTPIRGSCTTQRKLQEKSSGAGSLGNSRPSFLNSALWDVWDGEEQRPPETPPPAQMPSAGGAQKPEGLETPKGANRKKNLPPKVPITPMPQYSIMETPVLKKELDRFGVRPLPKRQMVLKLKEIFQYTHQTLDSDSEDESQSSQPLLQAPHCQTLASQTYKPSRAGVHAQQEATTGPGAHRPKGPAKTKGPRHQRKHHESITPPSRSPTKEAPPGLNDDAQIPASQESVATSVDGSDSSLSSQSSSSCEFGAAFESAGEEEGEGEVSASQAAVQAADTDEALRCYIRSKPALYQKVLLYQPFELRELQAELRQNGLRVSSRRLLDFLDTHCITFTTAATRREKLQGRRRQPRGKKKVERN

Target: YFP-SLX4 (human) (UniProt Q8IY92)
Assay: co-IP

B1: EME1 (endogenous, HeLa) (protein, UniProt Q96AY2 1-570)
chain: MALKKSSPSLDSGDSDSEELPTFAFLKKEPSSTKRRQPEREEKIVVVDISDCEASCPPAPELFSPPVPEIAETVTQTQPVRLLSSESEDEEEFIPLAQRLTCKFLTHKQLSPEDSSSPVKSVLDHQNNEGASCDWKKPFPKIPEVPLHDTPERSAADNKDLILDPCCQLPAYLSTCPGQSSSLAVTKTNSDILPPQKKTKPSQKVQGRGSHGCRQQRQARQKESTLRRQERKNAALVTRMKAQRPEECLKHIIVVLDPVLLQMEGGGQLLGALQTMECRCVIEAQAVPCSVTWRRRAGPSEDREDWVEEPTVLVLLRAEAFVSMIDNGKQGSLDSTMKGKETLQGFVTDITAKTAGKALSLVIVDQEKCFSAQNPPRRGKQGANKQTKKQQQRQPEASIGSMVSRVDAEEALVDLQLHTEAQAQIVQSWKELADFTCAFTKAVAEAPFKKLRDETTFSFCLESDWAGGVKVDLAGRGLALVWRRQIQQLNRVSLEMASAVVNAYPSPQLLVQAYQQCFSDKERQNLLADIQVRRGEGVTSTSRRIGPELSRRIYLQMTTLQPHLSLDSAD
  binding: binds
